Taken from: PubChem BioAssay AID1259425 (University of Nebraska Medical Center, 2018)
The whole screen tested about 14,000 reagents; this is a random part of them. Some reagents were tested in more than one well and are listed for each. Further read-outs or replicates are left out here. No sequences are given here. The record does not give: the time to read-out.

Purpose: 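Find knockdowns that reproduce the gene expression pattern seen when KSR1 is lost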 (primary screen)
System: HCT116 human colon cancer cells
Reagent: siRNA pool against human genes, 50 nM siRNA
Read-out: 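After 50 nM siRNA pool, branched-DNA assay measures six marker transcripts per well, minus blank, normalised to the geometric mean of two housekeeping transcripts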
Direction: BNIP3L mRNA: higher = more BNIP3L transcript after knockdown

no.	Gene	BNIP3L mRNA, set 1
1	ACSF2	0.153
2	ANGPTL3	0.0878
3	PDIA2	0.129
4	GOLIM4	0.109
5	MRPS21	0.0584
6	APPL2	0.141
7	SRP19	0.117
8	CSE1L	0.0674
9	NSUN5	0.183
10	KIAA0825	0.134
11	GRK3	0.0778
12	GRK3	0.0984
13	PVR	0.0931
14	SH2B2	0.103
15	IFITM3	0.114
16	SLC22A6	0.192
17	ANKRD36B	0.0522
18	CCL27	0.0874
19	USP35	0.0732
20	PLEKHB2	0.108
21	KMT5C	0.0792
22	NCOR2	0.169
23	CEBPZ	0.492
24	BHMT	0.0705
25	ABCC1	0.0853
26	TMEM106B	0.148
27	ECPAS	0.0774
28	TRAF6	0.076
29	CENPA	0.118
30	PHF1	0.0825
31	ERAL1	0.0935
32	DPF3	0.0751
33	AAAS	0.136
34	ARC	0.218
